Reference: PubChem BioAssay AID504467 (National Center for Advancing Translational Sciences (NCATS), 2011)
Among all 330,000 compounds or so, about 7,700 (2.3%) were called active. Inconclusive results, whose numbers are uncertain, are shown with a selection of clear calls. Calls come from the whole dose curve; as a rule, active = well fitted inhibition curve with a large enough effect; inconclusive = small, poorly fitted or top-dose-only effect, or effect the other way; inactive = flat fitted curve, though single readings scatter. Where the call is inconclusive, the potency comes from a doubtful curve fit.

experiment: qHTS screen for small molecules that inhibit ELG1-dependent DNA repair in human embryonic kidney (HEK293T) cells expressing luciferase-tagged ELG1; details: HEK293T ELG1-luciferase reporter, luminescence, 16 h, DNA damage induced by 5-fluorouridine; activity change, negative = inhibition: at 46.1 µM (top of the series); note: nearly all actives have a fitted effect of over 55% in size
Method in brief: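 Luminescence from the luciferase reporter, measured 30 min after ONE-Glo reagent at room temperature, was the read-out. Beforehand, 2,000 cells per well were exposed for 16 hr at 37 °C to 5-fluorouridine together with compound or vehicle.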
% is set by controls: 0 for no effect and ±100 for the full control effect; potency is the fitted concentration of half-maximal effect.

**Q.** For `O=C(NC(CO)(CO)CO)c1coc(=O)c(Br)c1`, which Potency is on record?
**A.** inconclusive: 1.16 µM [inhibitor, partial curve, poor fit]

**Q.** For `COc1ccc(-c2noc(N3CCC(C(=O)Nc4ccccc4OC)CC3)n2)cc1`, which Potency is on record?
**A.** active: 23.1 µM

**Q.** For `O=C(O)COc1ccc(/C=C/C(=O)c2ccc3ccccc3c2)cc1`, which “activity change, negative = inhibition” value is on record?
**A.** inactive: 0%

**Q.** Which Potency does the source give for `COC(=O)c1sccc1NC(=O)CSc1ccccc1NS(=O)(=O)c1cc(Cl)ccc1Cl` here?
**A.** inconclusive: 18.4 µM [inhibitor, partial curve, poor fit]

**Q.** Which Potency does the source give for `CCOc1ccc(CN(C)C(=O)CN2C(=O)NC3(CCCc4ccccc43)C2=O)cc1` (configuration not stated) here?
**A.** inconclusive: 29.1 µM [inhibitor, single point]

**Q.** For `CN(c1ccccc1)S(=O)(=O)c1cccc(NC(=O)Cn2cnc3c2c(=O)n(C)c(=O)n3C)c1`, which Potency is on record?
**A.** inconclusive: 20.6 µM [inhibitor, partial curve, poor fit]

**Q.** Which Potency does the source give for `CCN(CC)CCNC(=O)c1ccc2c(=O)n(C3CCCC3)c(=S)[nH]c2c1` here?
**A.** inconclusive: 11.6 µM [activator, partial curve, poor fit]

**Q.** Which “activity change, negative = inhibition” value does the source give for `Cc1ccc(NC(=O)C2(S(=O)(=O)c3ccc(Cl)cc3)CC2)c(Br)c1` here?
**A.** inactive: -5.63%

**Q.** For `CN1c2ccccc2Oc2nnc(N3CCN(Cc4ccccc4)CC3)cc21`, which Potency is on record?
**A.** inconclusive: 10.3 µM [activator, partial curve]

**Q.** Which Potency does the source give for `Cc1c(N=Cc2nc3ccccc3n2C)c(=O)n(-c2ccccc2)n1C` here?
**A.** inconclusive: 29.1 µM [activator, single point]

**Q.** For `O=C(N=C1SC2CS(=O)(=O)CC2N1c1ccc(OC(F)(F)F)cc1)C1CC1` (configuration not stated), which Potency is on record?
**A.** inconclusive: 29.1 µM [activator, single point]

**Q.** Which “activity change, negative = inhibition” value does the source give for `COc1ccccc1NC(=O)COC(=O)/C=C/c1ccc(OC)c(OC)c1` here?
**A.** inactive: -11.6%

**Q.** For `O=C(NCc1ccco1)c1cc(-c2ccccc2)nn1CC1CC(c2cccc([N+](=O)[O-])c2)=NO1` (configuration not stated), which Potency is on record?
**A.** inconclusive: 9.2 µM [inhibitor, partial curve, poor fit]

**Q.** With `Cc1ccc(NC(=O)NC(=O)COc2ccccc2C(N)=O)c(C)c1` as the compound, how does the Potency read?
**A.** inconclusive: 10.3 µM [activator, partial curve]

**Q.** Which “activity change, negative = inhibition” value does the source give for `Cc1sc(NC(=O)Cn2cnnn2)nc1-c1ccc(Cl)cc1` here?
**A.** inactive: -15.5%

**Q.** Which Potency does the source give for `CCC(C)Nc1nnnc2c1sc1nc3c(cc12)COC(C)(C)C3` (configuration not stated) here?
**A.** active: 23.1 µM

**Q.** With `CC(C)OC(=O)c1cccc(C(=O)OCc2ccco2)n1` as the compound, how does the Potency read?
**A.** inconclusive: 29.1 µM [activator, partial curve, poor fit]

**Q.** With `CCCn1c(SCC(=O)Nc2c(C)cccc2CC)nnc1C(C)C` as the compound, how does the “activity change, negative = inhibition” value read?
**A.** inactive: 8.4%

**Q.** With `Cc1ccc2c(CSc3nncs3)cc(=O)oc2c1` as the compound, how does the Potency read?
**A.** inconclusive: 10 µM [activator, partial curve]

**Q.** Which Potency does the source give for `O=C1NCC(O)=C1C=NC12CC3CC(CC(C3)C1)C2` here?
**A.** inconclusive: 18.4 µM [activator, single point]

**Q.** Which Potency does the source give for `CC(=O)n1cc([C@H]2C=C(C(=O)Nc3ccccc3)O[C@@H](OCc3ccc(CO)cc3)C2)c2ccccc21` here?
**A.** active: 9.2 µM

**Q.** For `CCN(CC)c1ccc(/C=C(\C#N)C(=O)NCc2ccccc2)cc1`, which Potency is on record?
**A.** inconclusive: 18.4 µM [inhibitor, partial curve]

**Q.** For `CC(C)Cc1nc(N2CCN(C(=O)c3ccccc3)CC2)c(C#N)c2c1CCC2`, which Potency is on record?
**A.** inconclusive: 18.4 µM [inhibitor, single point]

**Q.** Which Potency does the source give for `Cc1cc(C)c(C#N)c(N2CCN(c3ccc(F)cc3)CC2)n1` here?
**A.** inconclusive: 35.5 µM [inhibitor, single point]

**Q.** For `Cc1cccc(N2CCN(C(=O)c3cc4ccccc4oc3=O)CC2)c1C`, which Potency is on record?
**A.** inconclusive: 25.9 µM [activator, partial curve, poor fit]

**Q.** With `CC(C)(C)NC(=O)c1cccc(NC(=O)CSc2ccc(Cl)cc2)c1` as the compound, how does the Potency read?
**A.** inconclusive: 23.1 µM [inhibitor, partial curve, poor fit]

**Q.** For `COc1ccc(CCNc2nc(C)cc(C)c2C#N)cc1OC`, which Potency is on record?
**A.** inconclusive: 29.1 µM [inhibitor, single point]

**Q.** Which “activity change, negative = inhibition” value does the source give for `O=C(NCCNC1CCCCC1)c1ccco1` here?
**A.** inactive: 7.46%

**Q.** Which Potency does the source give for `CCCN1C(=O)S/C(=C/c2ccc(N3CCOCC3)o2)C1=O` here?
**A.** inconclusive: 29.1 µM [activator, single point]

**Q.** For `Cc1ccc2nc(-c3cccnc3)oc2c1`, which Potency is on record?
**A.** inconclusive: 23.1 µM [activator, partial curve]

**Q.** Which “activity change, negative = inhibition” value does the source give for `COc1ccccc1/C=N/NC(=O)Cn1cnc([N+](=O)[O-])n1` here?
**A.** inactive: 44.5%

**Q.** For `C/C(=N\NC(=S)NC1CCCCC1)c1cccc(C(F)(F)F)c1`, which “activity change, negative = inhibition” value is on record?
**A.** inactive: -8.16%

**Q.** Which Potency does the source give for `CC1CN(c2ccc(C(=O)c3ccccc3C(=O)O)cc2[N+](=O)[O-])CC(C)O1` (configuration not stated) here?
**A.** inconclusive: 29.1 µM [activator, single point]

**Q.** Which Potency does the source give for `COc1ccc(C[C@H](N)C(=O)N[C@H]2[C@@H](O)[C@H](n3cnc4c(N(C)C)ncnc43)O[C@@H]2CO)cc1` here?
**A.** active: 2.51 µM

**Q.** With `COc1cc(C(=O)NNC(=O)c2ccc(S(=O)(=O)N3CCCCC3)cc2)cc(OC)c1OC` as the compound, how does the Potency read?
**A.** inconclusive: 23.1 µM [inhibitor, partial curve, poor fit]

**Q.** Which “activity change, negative = inhibition” value does the source give for `O=C(COC(=O)c1ccco1)c1ccc(F)cc1` here?
**A.** inactive: 19%

**Q.** With `COC(=O)c1ccc(Oc2cc(C)nc(-n3nc(C)cc3C)n2)cc1` as the compound, how does the Potency read?
**A.** inconclusive: 16.4 µM [activator, partial curve, poor fit]

**Q.** Which Potency does the source give for `COc1ccc(CNC(=O)C(C)n2ccc3cc(S(=O)(=O)N4CCCCCC4)ccc32)cc1` (configuration not stated) here?
**A.** inconclusive: 29.1 µM [inhibitor, single point]

**Q.** Which Potency does the source give for `COc1ccc2nc(-n3c(C)ccc3C)sc2c1` here?
**A.** inconclusive: 23.1 µM [activator, single point]

**Q.** Which “activity change, negative = inhibition” value does the source give for `CCc1cccc2c1NC(=O)C21N2CCCC2C(C(=O)c2ccc3ccccc3c2)C12C(=O)Nc1ccccc12` (configuration not stated) here?
**A.** inactive: -7.02%

**Q.** With `Cc1cccc(NS(=O)(=O)c2cc(OCC(N)=O)c(C)cc2Cl)c1` as the compound, how does the Potency read?
**A.** inconclusive: 29.1 µM [inhibitor, single point]

**Q.** Which Potency does the source give for `CC(=O)c1c(C)[nH]c(C(=O)Nc2ccc(C)c(C)c2)c1C` here?
**A.** inconclusive: 4.61 µM [activator, partial curve]

**Q.** With `CCc1ccccc1NC(=O)COc1cccc2ccc(C)nc12` as the compound, how does the Potency read?
**A.** inconclusive: 32.6 µM [inhibitor, single point]

**Q.** For `Cc1ccc(NP(=O)(Nc2ccc(C)cc2)Nc2ccc(C)cc2)cc1`, which Potency is on record?
**A.** inconclusive: 29.1 µM [inhibitor, single point]

**Q.** Which Potency does the source give for `Nc1cccc(-c2cc3ccccc3oc2=O)c1` here?
**A.** inconclusive: 5.8 µM [activator, partial curve]

**Q.** With `C/C(=N\OCC(=O)Nc1ccc(OC(F)(F)F)cc1)c1ccc2c(c1)OCCO2` as the compound, how does the Potency read?
**A.** inconclusive: 25.9 µM [inhibitor, partial curve, poor fit]

**Q.** For `N/C(Cc1ccc(Cl)cc1Cl)=N\OC(=O)c1cccs1`, which “activity change, negative = inhibition” value is on record?
**A.** inactive: 27.9%

**Q.** With `COc1ccc(-n2c(SCC#N)nc3c(sc(=S)n3-c3ccccc3)c2=O)c(OC)c1` as the compound, how does the “activity change, negative = inhibition” value read?
**A.** inactive: -1.22%

**Q.** Which “activity change, negative = inhibition” value does the source give for `CCCSCCCNC(=O)Cn1nc(CC)n2c(cc3c(OC)cccc32)c1=O` here?
**A.** inactive: 11.5%

**Q.** Which Potency does the source give for `COc1ccc(/C=N/NC(=O)c2ccc3nc[nH]c3c2)cc1` here?
**A.** inconclusive: 29.1 µM [activator, single point]

**Q.** For `CCc1nc2ccccc2c(C(=O)OCC(=O)NCc2ccc3c(c2)OCO3)c1C`, which Potency is on record?
**A.** inconclusive: 16.4 µM [inhibitor, partial curve]

**Q.** For `Cc1ccc(OCc2nnc(SCC(=O)C(C)(C)C)n2Cc2ccco2)cc1`, which Potency is on record?
**A.** inconclusive: 8.2 µM [inhibitor, partial curve]

**Q.** Which Potency does the source give for `CCN1C(=O)/C(=C/c2cccs2)N(C)C1=S` here?
**A.** inconclusive: 9.2 µM [activator, partial curve, poor fit]

**Q.** With `Cc1ccccc1OCCNc1cc(N2CCNCC2)ccc1[N+](=O)[O-]` as the compound, how does the “activity change, negative = inhibition” value read?
**A.** inactive: -15.1%

**Q.** Which “activity change, negative = inhibition” value does the source give for `COc1ccc2oc(C(=O)N(CC(C)C)C3CCS(=O)(=O)C3)c(C)c2c1` (configuration not stated) here?
**A.** inactive: 2.82%

**Q.** For `O=C1C(=Cc2ccc(Br)o2)C(=O)c2ccccc21`, which “activity change, negative = inhibition” value is on record?
**A.** inactive: 17.3%

**Q.** For `CCOC(=O)C1CCN(C(=O)c2ccc(OCC)c(OCC)c2)CC1`, which Potency is on record?
**A.** inconclusive: 0.92 µM [inhibitor, single point]

**Q.** For `C/C(N)=C(/C#N)C(=O)COC(=O)c1ccc(O)cc1`, which Potency is on record?
**A.** inconclusive: 25.9 µM [activator, partial curve, poor fit]

**Q.** Which Potency does the source give for `COc1cc(NC(=O)c2ccc3c(c2)OCO3)c2ncccc2c1` here?
**A.** inconclusive: 2.06 µM [activator, full curve, poor fit]

**Q.** For `COc1ccc(NC(=O)Nc2ccccn2)cc1OC`, which Potency is on record?
**A.** inconclusive: 23.1 µM [activator, partial curve]

**Q.** For `Cc1c(OC(C)C(=O)NC2CC(C)(C)NC(C)(C)C2)ccc2c3c(c(=O)oc12)CCC3` (configuration not stated), which Potency is on record?
**A.** inconclusive: 16.4 µM [activator, partial curve, poor fit]

**Q.** Which Potency does the source give for `COc1cc(C2c3c(-c4cc(Cl)c(C)cc4O)n[nH]c3C(=O)N2Cc2cccnc2)ccc1O` (configuration not stated) here?
**A.** inconclusive: 23.1 µM [inhibitor, partial curve]

**Q.** With `COc1ccc(O)c(-c2cc(-c3cccc(Br)c3)n[nH]2)c1` as the compound, how does the Potency read?
**A.** inconclusive: 2.91 µM [activator, partial curve]

**Q.** Which Potency does the source give for `O=C(C[n+]1cccc2ccccc21)c1ccc([N+](=O)[O-])cc1` here?
**A.** active: 20.6 µM

**Q.** With `CCOc1ccccc1C(=O)N[C@H](C(=O)Nc1ccc(OC)c(S(=O)(=O)N2CCOCC2)c1)C(C)C` as the compound, how does the Potency read?
**A.** inconclusive: 29.1 µM [inhibitor, single point]

**Q.** With `COc1ccc(NC(=O)CSc2nnc(-c3cccnc3)s2)cc1` as the compound, how does the “activity change, negative = inhibition” value read?
**A.** inactive: 1.22%

**Q.** For `Cc1noc(C)c1NC(=O)Nc1ccc2c(c1)C(=O)N([C@H](C)CO)C[C@H](C)[C@@H](CN(C)S(C)(=O)=O)O2`, which Potency is on record?
**A.** inconclusive: 20.6 µM [activator, partial curve]
